According to PMC7615804:
Where a chain is given by its changes, count along the chain named. No constants are given. Whether binding was seen depends on the method and setting. Some entries that bind do so weakly or less than the wild type.

Protein sequences, listed by entry. Tags and fused reporters are not part of them. Lines headed by an entry give the natural chain unless they say otherwise; changes in a name come on top. Chains listed by the source or under a name are the forms on record and can include a tag or linker.
human Arf6 (12-175_Q67L) (P62330, form named): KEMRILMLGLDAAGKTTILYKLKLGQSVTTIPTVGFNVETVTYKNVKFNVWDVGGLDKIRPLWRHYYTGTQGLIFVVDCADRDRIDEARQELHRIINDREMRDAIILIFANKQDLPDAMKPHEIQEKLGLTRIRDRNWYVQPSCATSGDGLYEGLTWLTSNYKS
UniProt Q9NZ32: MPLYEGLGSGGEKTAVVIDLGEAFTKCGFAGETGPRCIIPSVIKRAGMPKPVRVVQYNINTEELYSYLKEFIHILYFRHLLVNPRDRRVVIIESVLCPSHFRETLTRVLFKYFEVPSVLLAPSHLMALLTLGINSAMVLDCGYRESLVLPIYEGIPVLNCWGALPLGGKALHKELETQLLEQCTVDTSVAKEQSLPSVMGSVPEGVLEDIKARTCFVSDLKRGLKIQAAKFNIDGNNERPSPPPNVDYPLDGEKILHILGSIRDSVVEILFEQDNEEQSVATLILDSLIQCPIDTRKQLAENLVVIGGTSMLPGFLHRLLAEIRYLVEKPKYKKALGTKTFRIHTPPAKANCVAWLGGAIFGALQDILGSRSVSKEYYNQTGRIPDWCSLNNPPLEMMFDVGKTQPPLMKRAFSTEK

Legend:
Assay in all cases: pull-down; pull-downs with mouse JIP3 186-505 constructs, Arf6 and the recombinant pointed end complex (Fig. S3E); purified recombinant proteins; which protein was held on the resin is not told in the text shown; both purified
[1] = biological target: T1, mouse JIP3 186-505_L439P (mouse) (UniProt Q9ESN9)
T1 sequence: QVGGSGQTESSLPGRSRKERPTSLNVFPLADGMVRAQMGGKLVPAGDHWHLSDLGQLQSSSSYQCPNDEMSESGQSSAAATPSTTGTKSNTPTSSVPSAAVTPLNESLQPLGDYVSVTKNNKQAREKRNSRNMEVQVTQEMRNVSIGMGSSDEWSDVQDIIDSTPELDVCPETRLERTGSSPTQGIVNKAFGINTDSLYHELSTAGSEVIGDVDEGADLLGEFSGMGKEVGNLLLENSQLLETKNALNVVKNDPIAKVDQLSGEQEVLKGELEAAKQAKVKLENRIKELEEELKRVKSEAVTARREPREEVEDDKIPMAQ

[2] = biological target: T2, mouse JIP3 186-505_L383A/E386A (mouse) (UniProt Q9ESN9)
T2 sequence: T1 sequence with L198A, E201A, P254L

[3] = biological target: T3, mouse JIP3^185-505 (JIP3 residues 186-505) (mouse) (UniProt Q9ESN9)
T3 sequence: T1 sequence with P254L

human Arf6 (12-175_Q67L) (from UniProt P62330 12-175) (domain or fragment)
binding [1]: no binding

dynactin pointed end complex (Arp11, p62, p27 and p25 with C-terminal 6xHis) (from UniProt Q9NZ32 1-417; Q9UJW0 1-460; O00399 1-190; Q9BTE1 1-182)
binding [2]: no binding
binding [3]: binds
binding [1]: binds
